Reference: patent US8354430B2, “Monohydrochloride salt of 1-[3-[3-(4-chlorophenyl) propoxy]propyl]-piperidine” (priority 2005, dated 2013)

Test system: mice
Test: Scopolamine-induced learning deficit, two-trial object recognition
Assay type: in vivo, mouse
Procedure: Lett., 1994, 170, 117-120; Bartolini et al., Biochem. Nehav., 1996, 53, 277-283]. Methods: Mice were allowed to explore a box for 30 min in the presence of two objects. The day after, mice were submitted to two trials spaced by an interval of 60 min. During the first trial (T1), mice were placed in the box containing the two identical objects and the time required by each animal to complete 20 sec of object exploration was determined. Exploration was considered to be directing the nose at a distance closer than 2 cm to the object and/or touching the object. For the second trial (T2), one of the objects presented in the first trial was replaced by and unknown novel object. Mice were placed in the box for 5 min and exploration of each object together with motor activity was determined. The following parameters were measured.

Cl.Clc1ccc(CCCOCCCN2CCCCC2)cc1 [1-[3-[3-(4-chlorophenyl)propoxy]propyl]-piperidine monohydrochloride]
time to reach the learning criteria on the first trial (5 mg/kg): did not modify | increase in motor activity of scopolamine-treated mice (5 and 15 mg/kg i.p.): not significantly modified | time to reach the learning criteria on the first trial (higher dose (15 mg/kg)): significantly increased
